Source: PubChem BioAssay AID1508600 (Functional Genomics Laboratory (NCATS/FGL), 2020)
The campaign covered roughly 53,000 sequences. About 3,700 (7%) were called active.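 How the source made its calls: active means gene knockdowns whose robust z-score for IL-1 alpha signal is at least 2 or at most -2, so actives lie on both sides; inactive means the rest.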 The list shows a part of the results.

assay: Components of the Cytosolic LPS Sensing Pathway: Gene Identification via Genome-wide siRNA Screen; conditions: RAW264.7 macrophages, IL-1a HTRF, actives lie on both sides, screened at 100 nM (by protocol), cells primed 5 h with Pam3CSK4 first;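 further: robust z of the log signal after scaling to non-targeting control siRNA wells of the plate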
Method in brief: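 Using IL-1a HTRF as read-out, the screen measured release from RAW264.7 cells after 48h siRNA knockdown (100 nM), 5 h Pam3CSK4 priming and 24 h cytosolic LipidA. Values were expressed relative to negative-control wells as robust z-scores.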

| Sequence | z-score |
| --- | --- |
| GCUACCUUAUCAAGAAUGATT against Snap91 | inactive: -0.506 |
| GCAAGUUAACCAGACCCAATT against Mro | inactive: 0.709 |
| GGACCAUGCUUCGUAUACATT against Idh3b | inactive: -0.423 |
| GGAAUUGGGUUCUACAUGCTT against Fam83f | inactive: -0.44 |
| CGAGAUAAACCUUAGUUCATT against Nudt12 | inactive: 0.399 |
| GCUGACCCAGCUAUGUACUTT against Ninl | inactive: -0.0313 |
| GCAUAAAGAAGGAAUCACCTT against Psrc1 | inactive: -1.9 |
| GGUUCAUGGGUUUUAAGUGTT against Eif1 | active: 2.25 |
| GCCCUAGCUUCGAUCUAUUTT against Tcf4 | inactive: -0.437 |
| CCUCAAUAAAAUCCUGGUGTT against Olfr99 | inactive: 0.433 |
| GGAAGCCCUAAAAAAGCUGTT against Ciapin1 | inactive: -0.904 |
| GGUAAGAGGAUGGACACAATT against Chst1 | inactive: 1.08 |
| GGAAGUAUUAACAAUGGUGTT against Rassf10 | inactive: -0.205 |
| CCUUACUAUGGUUGUCCUGTT against Olfr38 | inactive: 1.78 |
| CGUAUGUUCUGUCAGAUAUTT against Eef1aknmt | inactive: -1.33 |
| GCACCUCAAAAGAAUUCAUTT against Septin10 | inactive: 1.42 |
| GCAUCCUAGAGAAACUGUCTT against Unc50 | inactive: -0.598 |
| GGAGACCCACUACAUGACUTT against H2-M2 | inactive: -0.982 |
| GGCAGUCAGCUAAUGCUUATT against Pros1 | inactive: -0.372 |
| GCAGAAGUGAUUGAUACACTT against Hars | inactive: 0.86 |
| CCCUCGUUGAAUUAAACUUTT against Zfp385b | inactive: 0.88 |
| GCAGACUAAAAUCACGACATT against Ednra | active: 2.62 |
| GGCCUAUUUUAUCCACACUTT against Olfr65 | inactive: -0.0611 |

| Sequence | z-score |
| --- | --- |
| GCCUUUUGGAAACUUGCCCTT against Bcat1 | inactive: -0.564 |
| GCUGUUUAUAUUUCUUGCUTT against Olfr1393 | inactive: -0.417 |
| GGAGAACUCCUACAUGUCUTT against Irak1 | inactive: -1.62 |
| GGAAAUAGAAGAAAAACUCTT against Arglu1 | inactive: 1.39 |
| GGGUGCAUUUGAGAAGAUCTT against Casd1 | active: 4.11 |
| GGUAUACUGGUUGGAGGACTT against Slc22a8 | inactive: 0.94 |
| GCUGACGUACCCAGUAUCCTT against Pik3r3 | inactive: -1.21 |
| GGAUGUAUAGGUUCAGCUGTT against Dph2 | inactive: 0.41 |
| GCAGUAGCAUCCCAUUUGUTT against Ttr | inactive: -1.75 |
| CCAGUUGUGUGCAGUACAGTT against Nat8f4 | inactive: 0.573 |
| GGCUGUAGACAUUUUGUCUTT against Sds | inactive: -0.747 |
| GGAGAAUAAGCAAAUCCUUTT against Cfap20dc | inactive: -0.937 |
| GGUUGUUAAAAAUGUGUCUTT against Ctdspl | inactive: 0.868 |
| GGUGCAUAAACGAUGUGGATT against Zbtb12 | inactive: 0.489 |
| GGGAAAGAAUUGGAUUGAATT against N4bp2l1 | active: -2.31 |
| GGAUCACGCCUUUUGUCAUTT against Eif2d | inactive: -0.0659 |
| CGAGAAGUGCUGACUCAAUTT against Map2k3os | inactive: 0.563 |
| GCAUUUGAUACCUUCACUGTT against Krtap19-3 | inactive: -1.22 |
| GCUGUUCAAUUUGAUUACUTT against Dapp1 | inactive: 1.77 |
| GGAAGUACUUCGAUGAAAATT against Bdh1 | inactive: -0.644 |
| GGAUGCAGACCAGAACUACTT against C1ql1 | inactive: 1.6 |
| GGAGACUGAAGAAGAAUAUTT against Lpin2 | inactive: 0.87 |
| CCUCACAAUAUCUUUAGAATT against Cep162 | inactive: -0.0322 |

| Sequence | z-score |
| --- | --- |
| GGAACUUCCAGAGAUGAGUTT against Bmp2 | inactive: -0.517 |
| CGUGUCUCAUGGCAGAGUUTT against Lamp5 | inactive: -1.21 |
| GGUGGUACGCAAUCAAAAGTT against Galnt17 | active: 2.46 |
| GGUCCUGAUGAAUACAUACTT against Asb10 | inactive: -0.984 |
| GGCAGUGAUUGACUUCCUATT against Klhl32 | inactive: 0.985 |
| GGAAAUGUACUGUGCCUGGTT against Ogdh | inactive: -0.196 |
| GGACAUUGAGAUUUAGCCATT against Kcnc2 | inactive: 0.626 |
| GGCACACAUUUUCAAGGGCTT against Tanc1 | inactive: -1.73 |
| GGAUUGAAAAGAAUAUGCUTT against Tdrd7 | inactive: -1.05 |
| GGAAUUGUAGAAAGUGUUGTT against Adh4 | inactive: 1.66 |
| GGUGAUUUGGCUUCUGCACTT against Sp3 | inactive: 0.661 |
| GGAGAUCAUGUCCAAGUACTT against Syt17 | inactive: -1.11 |
| GGUUGCGUGUGGUUACUAUTT against Herc4 | inactive: 0.161 |
| GCAUCGACAGUCUCUUCAUTT against Polr2m | inactive: -0.69 |
| GGAGGACCCUAUGUCUAAUTT against Adora1 | active: 4.6 |
| GGAUAGAAACAUUUCUGUGTT against Olfr1145 | active: 2.1 |
| CCUGAGUCAGAUUCAUUUATT against Pten | inactive: 0.292 |
| GGAUCAUCAAAACUGACUATT against Sema3d | inactive: -0.142 |
| GCUCGGAAAACUGGCACUATT against Psmb7 | inactive: -0.584 |
| CCUCAUUCUCAUUACGACATT against Acp6 | inactive: -0.341 |
| GGCCCAGGAAGAAACAUGUTT against Tff1 | inactive: 0.463 |
| GGAAAAAAGAGUCACUUCCTT against Rag1 | inactive: 0.439 |
| GGGUUUAGAAAGAUGAAUGTT against Tbcel | inactive: -0.189 |

Part of the list above, as tab-separated lines.
Sequence	z-score
GCACCUCAAAAGAAUUCAUTT against Septin10	inactive: 1.42
GGAUCAUCAAAACUGACUATT against Sema3d	inactive: -0.142

Copied from the list.
Value for GCUCGGAAAACUGGCACUATT against Psmb7 under z-score: inactive: -0.584
Value for GGUGGUACGCAAUCAAAAGTT against Galnt17 under z-score: active: 2.46
